Source: the supplement of paper PMC10849652
The other results are listed elsewhere or left out.

Sequences of proteins named here, by UniProt entry; tags and fusion partners are left off. A change or cut given only in a name is not applied to a line headed by its entry.
UniProt Q9GZT4: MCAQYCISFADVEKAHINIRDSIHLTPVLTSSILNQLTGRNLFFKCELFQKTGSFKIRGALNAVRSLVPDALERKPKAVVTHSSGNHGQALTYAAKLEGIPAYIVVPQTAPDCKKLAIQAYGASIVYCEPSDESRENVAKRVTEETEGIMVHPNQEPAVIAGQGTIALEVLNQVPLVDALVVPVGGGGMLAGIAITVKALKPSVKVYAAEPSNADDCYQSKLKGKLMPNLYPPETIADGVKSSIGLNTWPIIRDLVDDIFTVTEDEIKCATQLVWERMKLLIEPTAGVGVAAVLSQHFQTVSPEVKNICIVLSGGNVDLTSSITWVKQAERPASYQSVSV
UniProt Q6ZUB1: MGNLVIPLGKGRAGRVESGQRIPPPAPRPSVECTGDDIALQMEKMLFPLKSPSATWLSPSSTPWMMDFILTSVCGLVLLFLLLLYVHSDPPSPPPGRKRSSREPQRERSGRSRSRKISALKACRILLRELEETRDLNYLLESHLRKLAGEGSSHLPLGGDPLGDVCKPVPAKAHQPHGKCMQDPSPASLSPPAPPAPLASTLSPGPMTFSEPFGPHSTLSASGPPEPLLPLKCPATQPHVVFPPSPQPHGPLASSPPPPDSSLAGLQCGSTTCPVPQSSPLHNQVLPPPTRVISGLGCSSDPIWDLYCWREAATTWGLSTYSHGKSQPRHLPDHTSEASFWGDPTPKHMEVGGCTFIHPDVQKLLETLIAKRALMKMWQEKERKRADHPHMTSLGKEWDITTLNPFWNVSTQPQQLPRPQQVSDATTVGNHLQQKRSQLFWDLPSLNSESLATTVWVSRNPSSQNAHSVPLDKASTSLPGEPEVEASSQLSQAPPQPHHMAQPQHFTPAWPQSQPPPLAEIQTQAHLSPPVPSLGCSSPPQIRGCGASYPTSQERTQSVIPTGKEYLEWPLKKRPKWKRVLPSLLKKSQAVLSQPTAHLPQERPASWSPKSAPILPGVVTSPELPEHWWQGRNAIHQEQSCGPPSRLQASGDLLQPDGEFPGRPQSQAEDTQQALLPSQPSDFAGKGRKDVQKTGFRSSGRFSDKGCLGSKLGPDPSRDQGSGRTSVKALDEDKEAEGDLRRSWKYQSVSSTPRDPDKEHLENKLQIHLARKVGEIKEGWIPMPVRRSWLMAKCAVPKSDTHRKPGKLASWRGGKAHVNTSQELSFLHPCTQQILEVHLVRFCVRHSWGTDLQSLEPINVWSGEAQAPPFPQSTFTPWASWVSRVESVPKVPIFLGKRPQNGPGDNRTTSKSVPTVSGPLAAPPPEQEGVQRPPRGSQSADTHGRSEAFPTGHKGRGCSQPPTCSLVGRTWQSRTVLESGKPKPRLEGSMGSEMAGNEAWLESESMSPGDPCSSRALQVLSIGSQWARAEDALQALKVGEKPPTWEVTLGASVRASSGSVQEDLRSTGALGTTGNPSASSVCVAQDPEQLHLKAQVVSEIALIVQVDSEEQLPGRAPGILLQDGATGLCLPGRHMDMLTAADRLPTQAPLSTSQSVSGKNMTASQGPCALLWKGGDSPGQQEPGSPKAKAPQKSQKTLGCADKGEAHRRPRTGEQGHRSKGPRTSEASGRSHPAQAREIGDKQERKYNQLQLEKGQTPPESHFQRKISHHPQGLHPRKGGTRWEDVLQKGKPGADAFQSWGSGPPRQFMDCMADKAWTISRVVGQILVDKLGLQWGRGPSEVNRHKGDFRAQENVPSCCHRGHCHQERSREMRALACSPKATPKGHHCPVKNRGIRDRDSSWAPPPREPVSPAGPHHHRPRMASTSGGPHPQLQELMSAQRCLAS
UniProt P40763, whole entry, looked up: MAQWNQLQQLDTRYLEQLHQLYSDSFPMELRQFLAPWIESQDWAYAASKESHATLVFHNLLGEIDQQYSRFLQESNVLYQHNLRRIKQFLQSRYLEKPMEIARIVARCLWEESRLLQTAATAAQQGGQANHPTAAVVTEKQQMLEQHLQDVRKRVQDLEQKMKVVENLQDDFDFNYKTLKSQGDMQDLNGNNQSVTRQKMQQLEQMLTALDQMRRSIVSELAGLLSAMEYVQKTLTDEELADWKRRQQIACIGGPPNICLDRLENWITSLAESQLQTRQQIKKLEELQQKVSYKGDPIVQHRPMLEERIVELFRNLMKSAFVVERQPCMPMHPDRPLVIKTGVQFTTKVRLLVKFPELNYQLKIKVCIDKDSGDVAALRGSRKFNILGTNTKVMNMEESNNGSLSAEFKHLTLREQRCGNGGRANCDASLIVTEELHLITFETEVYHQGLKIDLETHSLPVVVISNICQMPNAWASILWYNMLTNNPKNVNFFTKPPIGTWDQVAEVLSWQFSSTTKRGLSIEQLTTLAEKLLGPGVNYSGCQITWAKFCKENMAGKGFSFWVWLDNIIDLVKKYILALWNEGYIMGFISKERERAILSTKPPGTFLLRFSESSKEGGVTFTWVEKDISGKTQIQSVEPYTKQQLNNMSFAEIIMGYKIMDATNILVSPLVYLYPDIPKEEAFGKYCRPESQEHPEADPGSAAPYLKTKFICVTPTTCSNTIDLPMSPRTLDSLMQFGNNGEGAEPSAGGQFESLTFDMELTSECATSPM
UniProt Q9BWG4: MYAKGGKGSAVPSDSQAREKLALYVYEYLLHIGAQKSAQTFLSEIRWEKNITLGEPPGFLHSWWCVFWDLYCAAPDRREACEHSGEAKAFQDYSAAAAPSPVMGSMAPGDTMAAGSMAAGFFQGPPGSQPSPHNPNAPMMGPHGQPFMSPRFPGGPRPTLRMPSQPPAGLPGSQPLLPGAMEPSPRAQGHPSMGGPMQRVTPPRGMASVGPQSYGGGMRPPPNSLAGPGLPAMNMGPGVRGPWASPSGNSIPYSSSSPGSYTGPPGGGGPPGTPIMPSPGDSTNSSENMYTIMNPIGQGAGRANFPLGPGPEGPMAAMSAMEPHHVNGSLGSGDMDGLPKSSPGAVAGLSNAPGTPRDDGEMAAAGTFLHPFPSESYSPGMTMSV
UniProt Q9UHB9: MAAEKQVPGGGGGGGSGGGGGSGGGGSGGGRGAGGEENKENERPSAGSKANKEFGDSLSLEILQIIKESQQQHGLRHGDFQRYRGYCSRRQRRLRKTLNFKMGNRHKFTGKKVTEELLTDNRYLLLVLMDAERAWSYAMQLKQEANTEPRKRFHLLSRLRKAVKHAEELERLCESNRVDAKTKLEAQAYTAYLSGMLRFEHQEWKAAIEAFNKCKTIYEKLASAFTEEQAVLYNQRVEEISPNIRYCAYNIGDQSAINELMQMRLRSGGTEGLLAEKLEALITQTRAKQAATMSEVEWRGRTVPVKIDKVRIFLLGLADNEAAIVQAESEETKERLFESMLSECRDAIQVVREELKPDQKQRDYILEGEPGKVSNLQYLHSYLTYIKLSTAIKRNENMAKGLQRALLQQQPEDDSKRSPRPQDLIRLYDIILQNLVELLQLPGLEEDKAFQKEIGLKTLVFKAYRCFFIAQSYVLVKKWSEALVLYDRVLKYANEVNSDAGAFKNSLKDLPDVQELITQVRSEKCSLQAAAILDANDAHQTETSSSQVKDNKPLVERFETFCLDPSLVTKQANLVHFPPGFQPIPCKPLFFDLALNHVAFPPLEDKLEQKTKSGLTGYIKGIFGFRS
UniProt Q5M775: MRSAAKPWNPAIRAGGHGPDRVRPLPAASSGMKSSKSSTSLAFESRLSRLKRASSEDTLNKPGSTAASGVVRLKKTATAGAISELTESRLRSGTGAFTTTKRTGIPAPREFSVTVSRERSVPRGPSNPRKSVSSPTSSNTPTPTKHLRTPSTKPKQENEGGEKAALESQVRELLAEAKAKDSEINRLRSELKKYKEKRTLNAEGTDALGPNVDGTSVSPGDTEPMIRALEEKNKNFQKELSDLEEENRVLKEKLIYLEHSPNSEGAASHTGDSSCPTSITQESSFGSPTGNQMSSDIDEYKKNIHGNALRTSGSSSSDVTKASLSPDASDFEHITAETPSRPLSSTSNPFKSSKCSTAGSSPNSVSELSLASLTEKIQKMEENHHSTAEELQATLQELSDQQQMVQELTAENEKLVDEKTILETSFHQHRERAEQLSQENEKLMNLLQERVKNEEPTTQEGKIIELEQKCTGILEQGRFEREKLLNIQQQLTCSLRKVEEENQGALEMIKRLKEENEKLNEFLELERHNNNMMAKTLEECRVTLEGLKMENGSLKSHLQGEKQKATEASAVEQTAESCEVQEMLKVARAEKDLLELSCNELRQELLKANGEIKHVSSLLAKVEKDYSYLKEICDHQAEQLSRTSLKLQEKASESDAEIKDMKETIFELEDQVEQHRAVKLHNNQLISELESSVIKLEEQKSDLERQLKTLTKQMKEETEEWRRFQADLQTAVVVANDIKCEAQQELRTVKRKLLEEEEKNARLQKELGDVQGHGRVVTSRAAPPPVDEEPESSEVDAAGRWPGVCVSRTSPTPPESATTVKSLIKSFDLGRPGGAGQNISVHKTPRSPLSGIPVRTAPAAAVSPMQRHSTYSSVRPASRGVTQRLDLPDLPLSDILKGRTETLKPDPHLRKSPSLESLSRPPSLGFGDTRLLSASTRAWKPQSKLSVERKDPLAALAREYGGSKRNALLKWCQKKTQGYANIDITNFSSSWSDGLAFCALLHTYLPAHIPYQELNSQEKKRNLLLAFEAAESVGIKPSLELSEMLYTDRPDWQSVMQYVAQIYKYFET
UniProt Q12772: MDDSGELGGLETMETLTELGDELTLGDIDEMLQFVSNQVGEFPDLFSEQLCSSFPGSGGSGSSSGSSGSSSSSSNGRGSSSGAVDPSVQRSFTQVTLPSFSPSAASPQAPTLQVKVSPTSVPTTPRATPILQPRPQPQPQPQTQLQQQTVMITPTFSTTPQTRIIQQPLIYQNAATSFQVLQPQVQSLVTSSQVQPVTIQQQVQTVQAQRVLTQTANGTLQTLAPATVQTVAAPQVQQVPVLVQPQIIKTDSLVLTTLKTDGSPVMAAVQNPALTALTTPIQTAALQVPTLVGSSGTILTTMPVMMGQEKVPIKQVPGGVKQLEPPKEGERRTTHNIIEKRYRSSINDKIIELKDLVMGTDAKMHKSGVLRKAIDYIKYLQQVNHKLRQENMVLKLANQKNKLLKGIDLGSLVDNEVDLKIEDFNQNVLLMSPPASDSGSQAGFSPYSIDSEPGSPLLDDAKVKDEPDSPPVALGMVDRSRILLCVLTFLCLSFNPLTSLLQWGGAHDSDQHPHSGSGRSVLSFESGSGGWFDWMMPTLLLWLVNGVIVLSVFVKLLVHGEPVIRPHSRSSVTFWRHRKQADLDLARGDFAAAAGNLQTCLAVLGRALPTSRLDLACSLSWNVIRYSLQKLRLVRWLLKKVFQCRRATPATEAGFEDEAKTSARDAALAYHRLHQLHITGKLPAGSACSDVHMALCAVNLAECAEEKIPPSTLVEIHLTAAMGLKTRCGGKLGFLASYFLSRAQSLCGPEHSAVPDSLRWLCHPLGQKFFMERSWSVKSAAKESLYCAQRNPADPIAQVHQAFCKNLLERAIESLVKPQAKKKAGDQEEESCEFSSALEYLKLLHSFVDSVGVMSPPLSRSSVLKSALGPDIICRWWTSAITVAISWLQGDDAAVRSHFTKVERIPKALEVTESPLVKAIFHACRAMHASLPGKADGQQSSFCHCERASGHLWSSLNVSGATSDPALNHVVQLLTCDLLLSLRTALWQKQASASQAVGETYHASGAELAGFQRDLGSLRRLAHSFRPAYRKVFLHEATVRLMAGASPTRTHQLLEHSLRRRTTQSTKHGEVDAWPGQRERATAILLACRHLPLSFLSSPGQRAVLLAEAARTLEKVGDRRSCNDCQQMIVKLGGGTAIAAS
UniProt Q16385, whole entry, looked up: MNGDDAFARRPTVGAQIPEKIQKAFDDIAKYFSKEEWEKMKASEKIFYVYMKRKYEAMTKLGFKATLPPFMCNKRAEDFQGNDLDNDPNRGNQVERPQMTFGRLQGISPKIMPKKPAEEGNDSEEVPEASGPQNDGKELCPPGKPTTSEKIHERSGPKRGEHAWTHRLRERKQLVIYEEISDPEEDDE
UniProt Q8WXA9: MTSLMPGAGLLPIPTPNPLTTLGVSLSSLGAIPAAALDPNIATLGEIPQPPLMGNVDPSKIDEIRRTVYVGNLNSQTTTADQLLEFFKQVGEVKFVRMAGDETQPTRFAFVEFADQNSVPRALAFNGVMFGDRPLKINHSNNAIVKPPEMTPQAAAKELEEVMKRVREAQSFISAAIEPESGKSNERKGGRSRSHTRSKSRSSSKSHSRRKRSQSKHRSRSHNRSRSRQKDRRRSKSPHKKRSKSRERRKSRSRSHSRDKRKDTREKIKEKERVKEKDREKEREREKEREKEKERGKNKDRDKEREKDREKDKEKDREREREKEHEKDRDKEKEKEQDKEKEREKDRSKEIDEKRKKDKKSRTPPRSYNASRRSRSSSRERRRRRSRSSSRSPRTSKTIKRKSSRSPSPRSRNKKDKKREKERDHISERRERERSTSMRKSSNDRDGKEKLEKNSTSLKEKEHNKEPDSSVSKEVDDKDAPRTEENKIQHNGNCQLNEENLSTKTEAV

Key:
Test in all cases: log2 fold change, soluble protein after heating vs DMSO (PISA); higher = thermal stabilisation; K562 cells, 10 uM, 30 min; active = over 0.2 and 3.5 SD of the protein, either way, in both replicates (recomputed)
[1] = compound: CS(=O)(=O)c1ccc(-c2cnc(N)c(C(=O)Nc3ccccc3)n2)cc1
In short: (§1)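 K562 cells at 2×10^6 cells/mL were treated with 10 μM compound for 30 min. Aliquots were heated for 3 min across 48°C-58°C, pooled, and extracted in PBS with 0.5% NP-40 at 4°C; soluble protein was the supernatant after 21,000xg for 90 min. Soluble protein was quantified by TMTpro 16plex LC-MS/MS with channel sums equalised, and reported as log2 fold change in thermal stability against DMSO controls, with values from duplicates.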

crizotinib = compound: C[C@@H](Oc1cc(-c2cnn(C3CCNCC3)c2)cnc1N)c1c(Cl)ccc(F)c1Cl [crizotinib]
In short: as §1

[2] = compound: C[C@@H]1COCCN1C2=NC(=NC(=C2)C3(CC3)S(=O)(=O)C)C4=C5C=CNC5=CC=C4
In short: as §1

duvelisib = compound: C[C@H](Nc1ncnc2nc[nH]c12)c1cc2cccc(Cl)c2c(=O)n1-c1ccccc1 [duvelisib]
In short: as §1

gandotinib = compound: Cc1cc(Nc2cc(CN3CCOCC3)c3nc(C)c(Cc4ccc(Cl)cc4F)n3n2)n[nH]1 [gandotinib]
In short: as §1

tozasertib = compound: Cc1cc(Nc2cc(N3CCN(C)CC3)nc(Sc3ccc(NC(=O)C4CC4)cc3)n2)n[nH]1 [tozasertib]
In short: as §1

[3] = compound: Cc1cc(SCc2sc(-c3ccc(C(F)(F)F)cc3)nc2C)ccc1OCC(=O)O
In short: as §1

doramapimod = compound: Cc1ccc(-n2nc(C(C)(C)C)cc2NC(=O)Nc2ccc(OCCN3CCOCC3)c3ccccc23)cc1 [doramapimod]
In short: as §1

ispinesib = compound: Cc1ccc(C(=O)N(CCCN)[C@@H](c2nc3cc(Cl)ccc3c(=O)n2Cc2ccccc2)C(C)C)cc1 [ispinesib]
In short: as §1

bafetinib = compound: Cc1ccc(NC(=O)c2ccc(CN3CC[C@H](N(C)C)C3)c(C(F)(F)F)c2)cc1Nc1nccc(-c2cncnc2)n1 [bafetinib]
In short: as §1

[4] = compound: Cc1cccc(CC(=O)N2CCc3c2ccc(-c2cn(C)c4ncnc(N)c24)c3F)n1
In short: as §1

nilotinib = compound: Cc1cn(-c2cc(NC(=O)c3ccc(C)c(Nc4nccc(-c5cccnc5)n4)c3)cc(C(F)(F)F)c2)cn1 [nilotinib]
In short: as §1

[5] = compound: Cc1nc(Nc2n[nH]c3c2CN(C(=O)N[C@H](CN(C)C)c2ccccc2)C3(C)C)c2sccc2n1
In short: as §1

dasatinib = compound: Cc1nc(Nc2ncc(C(=O)Nc3c(C)cccc3Cl)s2)cc(N2CCN(CCO)CC2)n1 [dasatinib]
In short: as §1

[6] = compound: Cc1ncc(-c2ccnc(Nc3ccc(S(C)(=O)=O)cc3)n2)n1C(C)C
In short: as §1

[7] = compound: Cn1cc(-c2ccc3nnc(C(F)(F)c4ccc5ncccc5c4)n3n2)cn1
In short: as §1

tipifarnib = compound: Cn1cncc1[C@@](N)(c1ccc(Cl)cc1)c1ccc2c(c1)c(-c1cccc(Cl)c1)cc(=O)n2C [tipifarnib]
In short: as §1

mubritinib = compound: FC(F)(F)c1ccc(/C=C/c2nc(COc3ccc(CCCCn4ccnn4)cc3)co2)cc1 [mubritinib]
In short: as §1

[8] = compound: C[C@H](C1=CC=C(C=C1)C(=O)NC2=C3C=CNC3=NC=C2)N
In short: as §1

[9] = compound: Cn1cc(-c2ccc3c(c2)CCN3C(=O)Cc2cccc(C(F)(F)F)c2)c2c(N)ncnc21
In short: as §1

Target	log2 fold change [1]	log2 fold change (crizotinib)	log2 fold change [2]	log2 fold change (duvelisib)	log2 fold change (gandotinib)	log2 fold change (tozasertib)	log2 fold change [3]	log2 fold change (doramapimod)	log2 fold change (ispinesib)	log2 fold change (bafetinib)	log2 fold change [4]	log2 fold change (nilotinib)	log2 fold change [5]	log2 fold change (dasatinib)	log2 fold change [6]	log2 fold change [7]	log2 fold change (tipifarnib)	log2 fold change (mubritinib)	log2 fold change [8]	log2 fold change [9]
SRR (UniProt Q9GZT4)	inactive: -0.146	inactive: -0.05	inactive: 0.052	inactive: 0.068	inactive: -0.075	inactive: -0.03	inactive: 0.068	inactive: 0.022	inactive: -0.079	inactive: -0.111	inactive: -0.064	inactive: 0.011	inactive: 0.036	inactive: -0.059	inactive: -0.005	inactive: 0.115	inactive: 0.043	inactive: -0.027	–	–
SPATA31E1 (UniProt Q6ZUB1)	inactive: 0.089	inactive: 0.156	–	inactive: 0.32	inactive: 0.106	–	inactive: -0.139	inactive: 0.021	inactive: -0.068	inactive: -0.092	inactive: -0.151	inactive: -0.144	inactive: 0.019	inactive: 0.233	inactive: -0.133	inactive: 0.067	inactive: 0.112	inactive: -0.022	inactive: 0.305	inactive: -0.019
ST8SIA6 (UniProt P61647)	inactive: 0.217	inactive: 0.105	–	–	inactive: -0.038	–	–	inactive: 0.114	–	inactive: -0.211	inactive: -0.032	–	–	–	–	–	–	–	–	–
STAT3 (UniProt P40763)	inactive: 0.059	inactive: -0.126	inactive: 0.105	–	inactive: -0.184	–	inactive: 0.088	inactive: -0.009	inactive: -0.03	inactive: -0.015	inactive: -0.003	inactive: -0.097	inactive: -0.216	inactive: -0.141	inactive: 0.026	inactive: 0.013	inactive: -0.172	inactive: 0.024	inactive: -0.063	inactive: -0.027
SRRM2 (UniProt Q9UQ35)	inactive: -0.048	inactive: -0.246	inactive: 0.021	–	inactive: -0.13	–	inactive: 0.012	inactive: 0.044	inactive: -0.131	inactive: 0.068	inactive: 0.044	inactive: 0.02	active: -0.936	inactive: 0.079	inactive: -0.261	inactive: 0.022	inactive: 0.077	inactive: 0.035	inactive: -0.255	inactive: 0.048
SSBP4 (UniProt Q9BWG4)	inactive: -0.054	inactive: -0.034	–	–	inactive: -0.121	–	inactive: 0.123	inactive: 0.103	inactive: 0.148	inactive: -0.045	inactive: -0.069	inactive: 0.038	inactive: 0.014	inactive: -0.021	inactive: 0.053	inactive: 0.033	inactive: 0.301	inactive: 0.066	–	–
STARD7 (UniProt Q9NQZ5)	inactive: 0.023	inactive: -0.051	inactive: 0.045	–	inactive: -0.168	–	inactive: 0.023	inactive: 0.021	inactive: -0.01	inactive: -0.043	inactive: 0.109	inactive: -0.057	inactive: 0.081	inactive: -0.035	inactive: 0.094	inactive: -0.007	inactive: -0.026	inactive: 0.032	inactive: -0.114	inactive: 0.021
SRPRB (UniProt Q9Y5M8)	inactive: -0.006	inactive: 0.01	inactive: 0.059	–	inactive: 0.055	–	inactive: 0.083	inactive: -0.026	inactive: 0.055	inactive: 0.107	inactive: 0.14	inactive: 0.035	inactive: 0.026	inactive: -0.094	inactive: 0.121	inactive: 0.031	inactive: -0.123	inactive: 0.134	inactive: -0.042	inactive: 0.076
SRP68 (UniProt Q9UHB9)	inactive: 0.004	inactive: -0.134	inactive: -0.02	–	inactive: -0.064	–	inactive: 0.112	inactive: 0.029	inactive: -0.209	inactive: 0.043	inactive: 0.054	inactive: -0.118	inactive: -0.063	inactive: -0.098	inactive: 0.055	inactive: -0.08	inactive: -0.119	inactive: 0.012	inactive: 0.15	inactive: -0.026
SRSF4 (UniProt Q08170)	inactive: -0.055	inactive: 0.011	inactive: -0.248	–	inactive: 0.077	–	inactive: 0.031	inactive: 0.073	inactive: -0.021	inactive: 0.215	inactive: -0.064	inactive: 0.013	active: -0.602	inactive: 0.109	inactive: 0.028	inactive: -0.14	inactive: 0.127	inactive: -0.109	inactive: 0	inactive: -0.166
STK25 (UniProt O00506)	inactive: 0.04	inactive: -0.2	inactive: -0.011	–	inactive: -0.074	–	inactive: -0.001	inactive: 0.019	inactive: -0.071	inactive: -0.015	inactive: -0.055	inactive: -0.083	active: 0.257	inactive: -0.133	inactive: -0.033	inactive: 0.007	inactive: 0.042	inactive: -0.013	inactive: -0.026	inactive: 0.008
SPECC1 (UniProt Q5M775)	inactive: -0.104	inactive: -0.085	inactive: -0.02	–	inactive: -0.18	–	inactive: -0.036	inactive: 0.137	inactive: -0.079	inactive: -0.102	inactive: -0.1	inactive: -0.108	inactive: -0.133	inactive: -0.067	inactive: 0.063	inactive: 0.089	inactive: 0.028	inactive: 0.044	inactive: 0.045	inactive: -0.035
SRPRA (UniProt P08240)	inactive: 0.066	inactive: 0.036	inactive: 0.061	–	inactive: -0.042	–	inactive: 0.063	inactive: -0.044	inactive: 0.045	inactive: 0.143	inactive: 0.138	inactive: 0.066	inactive: 0.04	inactive: -0.105	inactive: 0.123	inactive: -0.037	inactive: -0.141	active: 0.227	inactive: 0.01	inactive: 0.054
SREBF2 (UniProt Q12772)	inactive: 0.036	inactive: 0.027	inactive: 0.108	–	–	–	–	inactive: -0.069	–	inactive: -0.029	–	inactive: -0.011	inactive: -0.076	–	inactive: 0.027	–	–	inactive: -0.017	–	–
SSX2 (UniProt Q16385)	inactive: -0.024	inactive: 0.062	inactive: 0.05	–	inactive: -0.003	–	inactive: -0.009	inactive: -0.043	inactive: -0.029	inactive: -0.098	inactive: -0.011	inactive: 0.003	inactive: -0.061	inactive: 0.014	inactive: -0.042	inactive: 0.012	inactive: -0.015	inactive: -0.048	inactive: 0.053	inactive: -0.039
SREK1 isoform 2 (UniProt Q8WXA9)	inactive: 0.317	inactive: -0.05	inactive: -0.005	–	inactive: 0.014	–	inactive: 0.105	inactive: -0.027	inactive: 0.059	inactive: 0.07	inactive: 0.015	inactive: 0.156	active: -0.593	inactive: -0.095	inactive: 0.005	inactive: -0.11	inactive: 0.031	inactive: 0.063	inactive: -0.345	inactive: -0.006
STK19 (UniProt P49842)	–	–	–	–	–	–	–	–	inactive: -0.083	–	–	–	–	–	–	inactive: -0.176	–	–	–	–

Reprinted at random: two entries already listed
Target	log2 fold change [1]	log2 fold change (crizotinib)	log2 fold change [2]	log2 fold change (duvelisib)	log2 fold change (gandotinib)	log2 fold change (tozasertib)	log2 fold change [3]	log2 fold change (doramapimod)	log2 fold change (ispinesib)	log2 fold change (bafetinib)	log2 fold change [4]	log2 fold change (nilotinib)	log2 fold change [5]	log2 fold change (dasatinib)	log2 fold change [6]	log2 fold change [7]	log2 fold change (tipifarnib)	log2 fold change (mubritinib)	log2 fold change [8]	log2 fold change [9]
SPECC1 (UniProt Q5M775)	inactive: -0.104	inactive: -0.085	inactive: -0.02	–	inactive: -0.18	–	inactive: -0.036	inactive: 0.137	inactive: -0.079	inactive: -0.102	inactive: -0.1	inactive: -0.108	inactive: -0.133	inactive: -0.067	inactive: 0.063	inactive: 0.089	inactive: 0.028	inactive: 0.044	inactive: 0.045	inactive: -0.035
STARD7 (UniProt Q9NQZ5)	inactive: 0.023	inactive: -0.051	inactive: 0.045	–	inactive: -0.168	–	inactive: 0.023	inactive: 0.021	inactive: -0.01	inactive: -0.043	inactive: 0.109	inactive: -0.057	inactive: 0.081	inactive: -0.035	inactive: 0.094	inactive: -0.007	inactive: -0.026	inactive: 0.032	inactive: -0.114	inactive: 0.021
